# Hit rate of the full screen: of about 400,000 compounds, about 5,500 (1.4%) were called active. Inconclusive means that the source gave no clear call. Such entries were picked first, then a sample of the others. The call rests on the fitted dose curve; in most records, active means well fitted cell-killing curve with a large enough effect; inconclusive means small, poorly fitted or top-dose-only effect, or effect the other way; inactive means flat fitted curve, though single readings scatter. Potencies beside an inconclusive call are fits to weak or partial responses and may not hold up.
# Experiment: qHTS assay for MDR1-selective chemotherapeutics: Primary screen using the parental adenocarcinoma cell KB-3-1; further: nearly all actives have a fitted effect of over 60% in size
# Conditions: KB-3-1 viability, CellTiter-Glo ATP luminescence, 72 h; activity change, negative = cytotoxic: at 46.1 µM (top of the series)
# In short: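 Luminescent ATP read-out (CellTiter-Glo) measures survival of drug-naive KB-3-1 cells after 72 h compound exposure at 37 °C. Titration series was screened from lowest to highest concentration, with DMSO vehicle plates as background controls.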
# On the % scale 0 is the no-effect control and ±100 the full control effect; potency means the concentration at half of the fitted maximal effect.
Compound,Potency,"activity change, negative = cytotoxic"
Cc1onc(-c2ccccc2)c1C(=O)NC(=S)NNC(=O)c1ccc(O)cc1O,active: 4.61 µM,
COc1ccc(C(=O)Nc2ccc3[nH]c(-c4cccc(OC)c4)cc(=O)c3c2)cc1,active: 0.731 µM,
COc1cccc(OC)c1-c1nn2c(-c3cc(-c4ccccc4)n[nH]3)nnc2s1,"inconclusive: 32.6 µM [cytotoxic, partial curve, poor fit]",
CC(C)Cn1c(N)c(C(=O)CSc2nnc(-c3ccco3)n2C)c(=O)n(C)c1=O,,inactive: 9.45%
COc1ccc(-c2sc3ccccc3c2-c2cc(OC)ccc2C=O)cc1,"inconclusive: 29.1 µM [cytotoxic, single point]",
O=C(CC1SC(N2CCCC2)=NC1=O)Nc1ccc(C(=O)Nc2ncccc2O)cc1 (configuration not stated),"inconclusive: 18.4 µM [cytotoxic, partial curve]",
CC(=O)N(CCC(Cc1ccccc1)c1ccc2c(c1)OCO2)Cc1ccc(Cl)cc1 (configuration not stated),"inconclusive: 20.6 µM [cytotoxic, single point]",
Cc1cccc(CN2CCN(C3CN(C4CCCCC4)S(=O)(=O)C3)CC2)c1 (configuration not stated),"inconclusive: 23.1 µM [cytotoxic, single point]",
Cc1ccc(CNC(=O)CCCn2nc(C)n3ccnc3c2=O)cc1,,inactive: 33.5%
COc1ccc(/C=N/NC(=O)c2ccoc2C)cc1COc1ccc(Cl)cc1,"inconclusive: 18.4 µM [cytotoxic, single point]",
O=C(CN1CCN(c2ccc(O)cc2)CC1)Nc1cc(S(=O)(=O)N2CCCCC2)ccc1Cl,,inactive: -17.5%
CC(=O)c1ccc(N2C(=O)CC(N3CCN(S(=O)(=O)c4cc(C)ccc4C)CC3)C2=O)cc1 (configuration not stated),"inconclusive: 29.1 µM [rising, partial curve, poor fit]",
CCN(CC)CCCNC(=O)c1ccc(OCC(=O)Nc2ccccc2C(F)(F)F)c(OC)c1,"inconclusive: 29.1 µM [cytotoxic, single point]",
Cc1ccc(CC(=O)Nc2nc3c(s2)CCCC3)cc1,"inconclusive: 5.8 µM [cytotoxic, full curve]",
Cc1oc(-c2ccccc2F)nc1CN1CCC(C(=O)NCCC2=CCCCC2)CC1,"inconclusive: 23.1 µM [cytotoxic, single point]",
COc1ccc(-c2noc(C3CCCN(C(=O)CCc4ccccc4)C3)n2)cc1 (configuration not stated),"inconclusive: 29.1 µM [cytotoxic, single point]",
NC(=S)N1N=C(c2ccccc2)CC1=O,,inconclusive: 1.66%
Cc1nn(C)c(Oc2cccc(Cl)c2)c1C(=O)Nc1ccc(F)cc1F,,inactive: -0.252%
CC1(C(=O)Nc2cccc(C(F)(F)F)c2)Cc2c(-c3ccccc3)ccnc2O1 (configuration not stated),,inactive: -0.0035%
COc1ccccc1C(=O)NNC(=O)C1CCCO1 (configuration not stated),,inactive: -2.06%
CC(=O)c1cc(NC(=O)c2ccccc2)c(=O)oc1/C=C/N(C)C,,inactive: 15.8%

Compound,Potency,"activity change, negative = cytotoxic"
CC(=O)c1ccc(NC(=O)c2ccc(CSc3ccccc3)o2)cc1,"inconclusive: 29.1 µM [cytotoxic, single point]",
CCOc1ccc(CCNC(=O)c2cccc(S(=O)(=O)N3CCCCC3)c2)cc1OCC,"inconclusive: 18.4 µM [cytotoxic, single point]",
COc1ccc(S(=O)(=O)Nc2ccc(-c3ccc4nnc(C)n4n3)cc2)c(OC)c1,"inconclusive: 20.6 µM [cytotoxic, single point]",
COC(=O)c1cnc(Nc2nc(C(N)Cc3ccccc3)cs2)nc1C(F)(F)F (configuration not stated),"inconclusive: 29.1 µM [cytotoxic, single point]",
CCOc1ccc(/C=C2\SC(=S)N(C)C2=O)cc1OC,"inconclusive: 20.6 µM [rising, partial curve, poor fit]",
CN1CCN(c2ccc(NC(=O)c3ccc(-c4ccc(Cl)cc4)o3)cc2)CC1,"inconclusive: 29.1 µM [cytotoxic, single point]",
COc1ccc(NC(=O)c2cc(-c3cc(OC)c(OC)c(OC)c3)nc3ccccc23)cc1OC,"inconclusive: 16.4 µM [cytotoxic, single point]",
Cc1cc(C)n2nc(C(=O)NC(c3ccccc3)c3ccccc3)nc2n1,"inconclusive: 32.6 µM [rising, single point]",
COc1ccc(NS(=O)(=O)c2ccc(-c3coc(C)n3)cc2)c(OC)c1,"inconclusive: 20.6 µM [cytotoxic, single point]",
CC(C)OCC(O)Cn1c(N2CCCC2)nc2c1c(=O)n(C)c(=O)n2C (configuration not stated),,inactive: 10.8%
c1ccc(C(NCCNC(c2ccccc2)c2ccccc2)c2ccccc2)cc1,"inconclusive: 29.1 µM [cytotoxic, single point]",
CCCCC(c1nc2ccccc2[nH]1)n1c(=O)c(-c2ccccc2)nc2cc(C)c(C)cc21 (configuration not stated),,inactive: -21.1%
COc1ccc(CNC(=O)c2ccc3nc(-c4ccc(F)cc4)c(-c4ccc(F)cc4)nc3c2)cc1,"inconclusive: 18.4 µM [cytotoxic, partial curve, poor fit]",
O=[N+]([O-])c1ccc(NC(=S)NCCc2ccc(Cl)cc2)cc1,"inconclusive: 20.6 µM [cytotoxic, single point]",
Cc1nc(N2CCC(C)CC2)c2oc3ccccc3c2n1,"inconclusive: 18.4 µM [cytotoxic, partial curve, poor fit]",
CC(=O)Nc1ccc(C(=O)Nc2ccc(S(=O)(=O)N3CCCCC3)cc2)cc1,,inactive: -5.32%
COc1ccc(Nc2sc(C(=O)c3ccc(Cl)cc3)c(N)c2C(=O)Nc2ccccc2OC)cc1,"inconclusive: 20.6 µM [cytotoxic, single point]",
Cc1ccc(NS(=O)(=O)c2ccc3c(c2)oc(=O)n3C)cc1F,"inconclusive: 0.0651 µM [cytotoxic, full curve]",
CCCCCc1cc(=O)oc2c(C(CCN3CCCC(C)C3)c3ccc4c(c3)OCO4)c(OC)cc(OC)c12 (configuration not stated),"inconclusive: 29.1 µM [cytotoxic, single point]",
O=C(/C=C/c1ccc(S(=O)(=O)NCc2ccco2)cc1)N1CCN(c2ccccc2)CC1,"inconclusive: 32.6 µM [cytotoxic, single point]",
Cc1cccc(N2CCN(C(=O)CS(=O)(=O)Cc3nc(-c4ccccc4C)oc3C)CC2C)c1 (configuration not stated),"inconclusive: 16.4 µM [cytotoxic, partial curve, poor fit]",

# Entries listed so far that contain an aryl thioether with sulfur outside any ring, in the order listed:
Compound,Potency,"activity change, negative = cytotoxic"
CC(C)Cn1c(N)c(C(=O)CSc2nnc(-c3ccco3)n2C)c(=O)n(C)c1=O,,inactive: 9.45%
CC(=O)c1ccc(NC(=O)c2ccc(CSc3ccccc3)o2)cc1,"inconclusive: 29.1 µM [cytotoxic, single point]",
